Assay results taken from article PMC5458265.
No constants are given. Whether binding was seen depends on the method and setting. Binding seen in cells or lysates may run through a third protein. Some results given as binding are weak or reduced against the parent protein; the word gives no strength.

Molecular target: BCL2L1/BCLXL (human (endogenous in SH-EP)), Q07817
Test: co-IP; endogenous BCLXL precipitated with 1 ug BCLXL antibody covalently coupled to Protein A support from SH-EP lysate (1% IGEPAL buffer, at least 1000 ug lysate, 4 °C, 6 hours); cells untreated or treated with 50 nM MG-2477 for 30 minutes and two hours; immunoblot
Conditions: remark: other sources report otherwise

- binding: binds
B1: PMAIP1/NOXA, Q13794 1-54 (protein)
chain: MPGKKARKNAQPSPARAPAELEVECATQLRRFGDKLNFRQKLLNLISKLFCSGT
